In PMC6509358, “A Secreted RNA Binding Protein Forms RNA-Stabilizing Granules in the Honeybee Royal Jelly”:

What was measured:
[1] = biological target: T1, MRJP-3 (jelly-purified) (Apis mellifera) (UniProt Q17060); experiment: EMSA; conditions: 42.8 uM protein, EMSA: room temperature 0.5-3 h, 0.8% agarose, 1xTAE, native protein
T1 sequence (looked up, limits assumed): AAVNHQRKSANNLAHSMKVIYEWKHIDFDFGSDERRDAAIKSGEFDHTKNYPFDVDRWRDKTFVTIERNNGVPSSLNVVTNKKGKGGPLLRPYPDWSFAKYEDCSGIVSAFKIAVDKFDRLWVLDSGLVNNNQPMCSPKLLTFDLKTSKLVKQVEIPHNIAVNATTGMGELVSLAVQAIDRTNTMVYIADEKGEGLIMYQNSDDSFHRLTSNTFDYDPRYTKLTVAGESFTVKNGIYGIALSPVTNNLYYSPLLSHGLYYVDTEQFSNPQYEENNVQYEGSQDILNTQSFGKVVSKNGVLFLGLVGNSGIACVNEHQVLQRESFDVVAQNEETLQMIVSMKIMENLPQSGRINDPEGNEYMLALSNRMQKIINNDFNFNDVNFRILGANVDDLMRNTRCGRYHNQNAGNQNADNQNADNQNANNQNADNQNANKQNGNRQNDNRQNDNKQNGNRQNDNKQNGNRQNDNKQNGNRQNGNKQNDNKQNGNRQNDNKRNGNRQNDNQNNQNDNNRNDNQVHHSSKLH

[2] = biological target: T1, MRJP-3 (jelly-purified) (Apis mellifera); experiment: MST; conditions: 25 C, native protein, label: Alexa Fluor 488 (Ulysis)
[3] = below 18 nt minimum for efficient binding

**Q.** Does “ACGCUUCUAACUUCAAGAUUUUACACAAUCAUAUGGGCUCACUGUUACUA / UAGUAACAGUGAGCCCAUAUGAUUGUGUAAAAUCUUGAAGUUAGAAGCGU [50 bp dsRNA]” bind ([1]; 0.27 uM RNA)?
**A.** binds

**Q.** Does ACUGUUACUA [10 nt ssRNA] bind [1, 3]?
**A.** binds more weakly

**Q.** Does AGGUAAGAUGUUGGUAUAGCUGA [23 nt ssRNA] bind [1]?
**A.** binds

**Q.** Does GGCUCACUGUUACUA [15 nt ssRNA] bind [1, 3]?
**A.** binds more weakly

**Q.** Which Kd ([2]; first of two binding phases) does the source give for “UCAUAUGGGCUCACUGUUACUA / UAGUAACAGUGAGCCCAUAUGA [22 nt dsRNA]” here?
**A.** 11 nM

**Q.** And the Kd ([2]; second of two binding phases)?
**A.** 150 nM

**Q.** Does UGUGUUUAUAGCGGAUUUUG [20 nt ssRNA] bind [1]?
**A.** binds

**Q.** Does UGUGUUUAUAGCGGAUUUUGA [21 nt ssRNA] bind [1]?
**A.** binds

The exact form of at least one protein or probe is not confirmed. For some assays here: The comparison behind a weaker result is the experiment's own reference, which may not be listed here. For some assays here: At least one verdict was read from the data and is not stated in words by the source. Tags and fusion partners may be left off the protein sequences shown.
